# Some results were stated once for a whole list of compounds, not compound by compound. For at least one compound, name, drawing or mass did not settle the structure.
# System: Caco-2 cells
# Assay: CCK-8 cytotoxicity test, viability of Caco-2 cells
# Assay type: cell-based
# Conditions: Caco-2, 24 h, concentrations less than 0.2 mg/mL
structure (smiles),measurement,value
"OC[C@H]1O[C@@H](Oc2cc3c(O)cc(O)cc3[o+]c2-c2ccc(O)c(O)c2)[C@H](O)[C@@H](O)[C@@H]1O [C3G, Cyanidin-3-glucoside]",cell viability,greater than 70%
